# Reference: the supplement of paper PMC7666118
# Amino acid sequences for entries named in this document (tags omitted). A change or cut given only in a name is not applied to a line headed by its entry.
# UniProt Q8N567: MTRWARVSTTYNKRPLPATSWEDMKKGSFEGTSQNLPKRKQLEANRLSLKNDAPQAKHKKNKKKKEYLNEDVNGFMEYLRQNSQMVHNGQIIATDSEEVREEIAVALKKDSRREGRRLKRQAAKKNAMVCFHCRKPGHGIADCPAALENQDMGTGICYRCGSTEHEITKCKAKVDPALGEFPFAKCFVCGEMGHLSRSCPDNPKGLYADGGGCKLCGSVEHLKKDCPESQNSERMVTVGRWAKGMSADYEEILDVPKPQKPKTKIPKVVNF
# UniProt A8MPS7: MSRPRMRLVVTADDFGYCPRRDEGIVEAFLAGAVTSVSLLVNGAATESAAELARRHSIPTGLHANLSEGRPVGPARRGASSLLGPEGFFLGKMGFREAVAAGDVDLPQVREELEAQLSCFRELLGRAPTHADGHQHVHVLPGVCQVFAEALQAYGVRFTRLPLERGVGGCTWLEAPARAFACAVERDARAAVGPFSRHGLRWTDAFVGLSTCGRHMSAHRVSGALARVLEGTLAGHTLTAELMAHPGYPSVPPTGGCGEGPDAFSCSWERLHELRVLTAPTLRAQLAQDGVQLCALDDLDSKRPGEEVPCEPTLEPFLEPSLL
# UniProt Q9P2L0: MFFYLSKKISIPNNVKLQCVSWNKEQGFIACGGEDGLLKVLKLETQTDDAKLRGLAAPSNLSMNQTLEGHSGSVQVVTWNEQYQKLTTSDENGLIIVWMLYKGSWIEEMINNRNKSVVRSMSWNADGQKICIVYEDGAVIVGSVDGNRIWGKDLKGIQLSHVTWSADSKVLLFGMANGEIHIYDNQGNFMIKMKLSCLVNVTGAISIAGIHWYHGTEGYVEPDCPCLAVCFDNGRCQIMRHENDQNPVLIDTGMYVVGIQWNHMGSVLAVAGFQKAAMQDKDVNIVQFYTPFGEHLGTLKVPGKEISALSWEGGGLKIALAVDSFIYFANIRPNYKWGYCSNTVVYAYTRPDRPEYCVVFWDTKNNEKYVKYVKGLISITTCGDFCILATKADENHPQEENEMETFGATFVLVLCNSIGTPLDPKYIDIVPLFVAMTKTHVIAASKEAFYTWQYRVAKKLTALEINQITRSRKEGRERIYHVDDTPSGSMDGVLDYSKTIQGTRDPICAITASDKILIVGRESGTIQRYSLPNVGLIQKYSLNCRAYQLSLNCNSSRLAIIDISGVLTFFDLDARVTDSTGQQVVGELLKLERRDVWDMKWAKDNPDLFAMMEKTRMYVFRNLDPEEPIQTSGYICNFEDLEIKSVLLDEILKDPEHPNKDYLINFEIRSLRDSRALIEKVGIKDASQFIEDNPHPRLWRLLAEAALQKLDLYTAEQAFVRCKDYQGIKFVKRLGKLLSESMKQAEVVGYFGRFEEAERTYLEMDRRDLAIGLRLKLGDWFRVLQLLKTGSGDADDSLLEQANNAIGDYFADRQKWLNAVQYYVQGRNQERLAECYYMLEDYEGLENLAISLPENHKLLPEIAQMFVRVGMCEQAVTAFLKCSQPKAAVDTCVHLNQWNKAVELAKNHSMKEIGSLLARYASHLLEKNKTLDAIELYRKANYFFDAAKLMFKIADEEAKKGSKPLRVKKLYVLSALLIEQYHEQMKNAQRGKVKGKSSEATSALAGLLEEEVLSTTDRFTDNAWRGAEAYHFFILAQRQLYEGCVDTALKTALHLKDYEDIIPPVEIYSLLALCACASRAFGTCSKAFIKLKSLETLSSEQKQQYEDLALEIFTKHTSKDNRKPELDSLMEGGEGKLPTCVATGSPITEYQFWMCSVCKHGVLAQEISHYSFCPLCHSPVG
# UniProt Q5T7W0: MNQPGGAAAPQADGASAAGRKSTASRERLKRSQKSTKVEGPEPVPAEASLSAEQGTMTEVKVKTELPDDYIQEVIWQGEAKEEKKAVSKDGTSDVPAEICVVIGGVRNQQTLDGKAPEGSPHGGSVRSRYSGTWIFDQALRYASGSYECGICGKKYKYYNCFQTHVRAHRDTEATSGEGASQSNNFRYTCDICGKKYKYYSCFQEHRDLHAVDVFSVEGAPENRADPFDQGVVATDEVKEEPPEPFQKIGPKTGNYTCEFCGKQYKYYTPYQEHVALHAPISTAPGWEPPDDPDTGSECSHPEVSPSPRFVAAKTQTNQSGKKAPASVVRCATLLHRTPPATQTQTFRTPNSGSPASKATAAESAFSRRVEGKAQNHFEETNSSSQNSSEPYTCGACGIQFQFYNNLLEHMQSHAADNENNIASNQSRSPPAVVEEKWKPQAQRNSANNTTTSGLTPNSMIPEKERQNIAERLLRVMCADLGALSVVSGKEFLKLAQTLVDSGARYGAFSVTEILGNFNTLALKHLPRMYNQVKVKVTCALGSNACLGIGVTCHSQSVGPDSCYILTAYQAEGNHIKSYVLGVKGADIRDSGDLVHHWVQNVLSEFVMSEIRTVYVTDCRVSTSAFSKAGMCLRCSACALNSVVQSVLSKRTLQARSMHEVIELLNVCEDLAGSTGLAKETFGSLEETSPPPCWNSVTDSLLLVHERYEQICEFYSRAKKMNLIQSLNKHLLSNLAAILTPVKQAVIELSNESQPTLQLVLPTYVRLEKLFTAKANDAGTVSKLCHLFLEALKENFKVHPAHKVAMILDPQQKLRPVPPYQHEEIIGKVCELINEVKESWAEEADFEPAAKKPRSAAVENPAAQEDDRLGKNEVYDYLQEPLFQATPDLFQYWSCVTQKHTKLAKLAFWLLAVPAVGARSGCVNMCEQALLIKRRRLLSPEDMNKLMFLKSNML
# UniProt Q9UBW7: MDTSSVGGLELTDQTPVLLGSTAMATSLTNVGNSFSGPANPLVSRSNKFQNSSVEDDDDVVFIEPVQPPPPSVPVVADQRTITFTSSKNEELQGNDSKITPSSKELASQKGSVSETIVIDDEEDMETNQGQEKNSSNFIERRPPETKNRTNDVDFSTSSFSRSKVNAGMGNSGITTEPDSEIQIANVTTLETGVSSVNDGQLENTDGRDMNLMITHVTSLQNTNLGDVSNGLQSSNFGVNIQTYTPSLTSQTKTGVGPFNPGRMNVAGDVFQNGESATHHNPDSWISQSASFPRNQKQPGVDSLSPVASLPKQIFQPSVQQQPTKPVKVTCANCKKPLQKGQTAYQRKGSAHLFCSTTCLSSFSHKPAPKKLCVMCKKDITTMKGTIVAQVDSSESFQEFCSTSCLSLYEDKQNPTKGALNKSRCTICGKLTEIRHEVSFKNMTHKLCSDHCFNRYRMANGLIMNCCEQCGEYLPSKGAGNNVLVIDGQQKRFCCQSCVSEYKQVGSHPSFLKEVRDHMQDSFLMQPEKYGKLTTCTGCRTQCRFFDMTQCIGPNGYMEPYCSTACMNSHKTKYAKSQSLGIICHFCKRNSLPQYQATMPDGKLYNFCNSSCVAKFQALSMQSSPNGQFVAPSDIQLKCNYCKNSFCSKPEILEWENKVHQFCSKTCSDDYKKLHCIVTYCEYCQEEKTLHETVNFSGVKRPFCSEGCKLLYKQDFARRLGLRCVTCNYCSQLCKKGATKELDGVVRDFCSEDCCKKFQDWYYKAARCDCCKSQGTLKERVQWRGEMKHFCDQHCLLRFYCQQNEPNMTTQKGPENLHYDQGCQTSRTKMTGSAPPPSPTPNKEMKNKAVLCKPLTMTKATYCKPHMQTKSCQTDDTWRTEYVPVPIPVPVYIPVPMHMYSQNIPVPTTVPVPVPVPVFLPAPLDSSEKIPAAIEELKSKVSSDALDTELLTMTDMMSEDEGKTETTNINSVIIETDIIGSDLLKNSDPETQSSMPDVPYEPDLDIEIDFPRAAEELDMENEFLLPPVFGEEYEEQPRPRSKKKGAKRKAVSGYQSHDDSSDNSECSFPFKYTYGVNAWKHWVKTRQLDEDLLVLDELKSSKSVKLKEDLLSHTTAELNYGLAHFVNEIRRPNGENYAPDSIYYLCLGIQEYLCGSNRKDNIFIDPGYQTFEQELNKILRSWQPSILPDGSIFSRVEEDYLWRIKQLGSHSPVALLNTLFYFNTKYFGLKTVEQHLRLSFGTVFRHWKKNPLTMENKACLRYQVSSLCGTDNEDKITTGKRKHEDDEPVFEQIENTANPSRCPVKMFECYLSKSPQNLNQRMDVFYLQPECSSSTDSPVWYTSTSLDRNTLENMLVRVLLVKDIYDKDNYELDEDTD
# UniProt Q2TB10: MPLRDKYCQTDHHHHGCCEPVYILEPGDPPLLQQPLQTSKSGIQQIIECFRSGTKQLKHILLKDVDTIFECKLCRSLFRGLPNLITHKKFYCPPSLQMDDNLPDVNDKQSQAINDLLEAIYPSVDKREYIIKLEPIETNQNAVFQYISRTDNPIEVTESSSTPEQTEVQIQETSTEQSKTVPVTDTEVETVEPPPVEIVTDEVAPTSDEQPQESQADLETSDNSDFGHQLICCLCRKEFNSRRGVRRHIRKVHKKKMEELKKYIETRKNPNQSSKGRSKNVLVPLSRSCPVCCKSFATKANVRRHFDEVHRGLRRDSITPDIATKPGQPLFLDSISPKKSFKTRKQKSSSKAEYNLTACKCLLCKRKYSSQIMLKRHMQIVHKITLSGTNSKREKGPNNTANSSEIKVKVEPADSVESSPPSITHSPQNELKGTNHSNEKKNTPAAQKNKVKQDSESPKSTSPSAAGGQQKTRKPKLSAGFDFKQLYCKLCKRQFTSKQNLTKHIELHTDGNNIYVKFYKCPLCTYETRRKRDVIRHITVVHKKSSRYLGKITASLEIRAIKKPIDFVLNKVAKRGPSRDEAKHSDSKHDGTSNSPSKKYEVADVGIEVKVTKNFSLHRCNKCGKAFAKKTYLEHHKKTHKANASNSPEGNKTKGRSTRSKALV
# UniProt O00308: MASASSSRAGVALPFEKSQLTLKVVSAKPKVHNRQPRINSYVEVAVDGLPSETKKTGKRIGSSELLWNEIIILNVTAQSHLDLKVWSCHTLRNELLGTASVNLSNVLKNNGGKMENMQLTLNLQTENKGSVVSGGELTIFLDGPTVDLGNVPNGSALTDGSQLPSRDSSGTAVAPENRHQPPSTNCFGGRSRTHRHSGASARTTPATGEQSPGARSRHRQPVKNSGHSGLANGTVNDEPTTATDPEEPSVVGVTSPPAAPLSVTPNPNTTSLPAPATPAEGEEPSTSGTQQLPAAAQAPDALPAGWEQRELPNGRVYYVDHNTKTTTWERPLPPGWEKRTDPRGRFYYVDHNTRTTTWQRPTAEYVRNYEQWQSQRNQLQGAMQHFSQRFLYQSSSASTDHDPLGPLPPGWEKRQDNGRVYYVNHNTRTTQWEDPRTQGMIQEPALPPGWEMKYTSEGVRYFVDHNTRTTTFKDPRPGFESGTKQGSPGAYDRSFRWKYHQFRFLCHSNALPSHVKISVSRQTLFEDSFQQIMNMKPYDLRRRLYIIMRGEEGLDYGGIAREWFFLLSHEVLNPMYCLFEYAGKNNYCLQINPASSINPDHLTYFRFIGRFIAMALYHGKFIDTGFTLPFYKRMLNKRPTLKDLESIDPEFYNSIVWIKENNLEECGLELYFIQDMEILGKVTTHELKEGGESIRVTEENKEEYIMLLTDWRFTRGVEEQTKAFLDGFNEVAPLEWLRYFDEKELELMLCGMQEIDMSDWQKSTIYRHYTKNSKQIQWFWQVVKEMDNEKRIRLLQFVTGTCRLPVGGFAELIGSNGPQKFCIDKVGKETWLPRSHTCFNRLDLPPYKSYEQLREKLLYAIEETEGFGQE
# UniProt Q5BJH7: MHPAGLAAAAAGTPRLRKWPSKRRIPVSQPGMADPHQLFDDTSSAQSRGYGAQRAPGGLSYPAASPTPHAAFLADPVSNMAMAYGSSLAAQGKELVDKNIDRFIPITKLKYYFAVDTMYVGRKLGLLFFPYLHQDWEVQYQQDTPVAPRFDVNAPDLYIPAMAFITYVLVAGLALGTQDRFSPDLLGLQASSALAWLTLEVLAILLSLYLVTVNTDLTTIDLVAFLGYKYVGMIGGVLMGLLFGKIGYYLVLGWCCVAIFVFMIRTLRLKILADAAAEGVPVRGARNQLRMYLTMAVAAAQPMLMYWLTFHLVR
# UniProt Q8NAF0: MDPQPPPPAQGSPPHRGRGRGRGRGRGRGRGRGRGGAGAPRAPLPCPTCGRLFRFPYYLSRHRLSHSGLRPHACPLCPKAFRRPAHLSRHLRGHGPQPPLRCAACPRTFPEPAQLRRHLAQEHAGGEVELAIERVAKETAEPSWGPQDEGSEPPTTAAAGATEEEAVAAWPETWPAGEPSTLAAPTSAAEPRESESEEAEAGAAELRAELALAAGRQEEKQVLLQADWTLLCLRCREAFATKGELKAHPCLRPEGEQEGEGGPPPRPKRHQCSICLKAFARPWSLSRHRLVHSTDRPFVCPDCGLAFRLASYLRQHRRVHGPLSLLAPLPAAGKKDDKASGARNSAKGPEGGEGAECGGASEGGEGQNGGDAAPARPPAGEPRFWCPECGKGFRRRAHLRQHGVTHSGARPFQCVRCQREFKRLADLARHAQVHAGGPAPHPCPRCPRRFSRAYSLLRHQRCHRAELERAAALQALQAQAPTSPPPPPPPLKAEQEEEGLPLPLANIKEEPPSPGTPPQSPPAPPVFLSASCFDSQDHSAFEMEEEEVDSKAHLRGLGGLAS
# This is one part of the list.
# Compound: COc1ccc(Cn2ccc3cc(C)c(C(=O)NO)cc32)cc1
# Assay: dose-dependent thermal stabilisation call (2D-TPP, DLPTP, 10% FDR) (binary (1 = stabilised)); higher = stabilised by the compound
# Conditions: system: HL-60 intact cells; concentration range 0.04-10 µM
# Method: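 2D thermal proteome profiling in intact HL-60 cells treated with BRD-3811 (0, 0.04, 0.29, 2, 10 uM) for 90 min at 37 C, then heated 3 min at one of 12 temperatures (42-63.9 C). Soluble protein was quantified by TMT10 MS. The value is the DLPTP call of the paper: dose-dependent thermal stabilisation over all temperatures at 10% FDR (F-test of a dose-response against a flat model); one experiment, one call per tested protein.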
row,Target,dose-dependent thermal stabilisation call
1,YWHAH (UniProt Q04917),inactive: 0
2,WDR79 (UniProt Q9BUR4),inactive: 0
3,YPEL5 (UniProt P62699),inactive: 0
4,ZNF598 (UniProt Q86UK7),inactive: 0
5,WDR89 (UniProt Q96FK6),inactive: 0
6,ZMPSTE24 (UniProt O75844),inactive: 0
7,ZNF48 (UniProt Q96MX3),inactive: 0
8,ZNF131 (UniProt P52739),inactive: 0
9,WIPI2 (UniProt Q9Y4P8),inactive: 0
10,ZEB2 (UniProt O60315),inactive: 0
11,ZCCHC9 (UniProt Q8N567),inactive: 0
12,YDJC (UniProt A8MPS7),inactive: 0
13,WDR35 (UniProt Q9P2L0),inactive: 0
14,ZNF618 (UniProt Q5T7W0),inactive: 0
15,WDR20 (UniProt Q8TBZ3),inactive: 0
16,ZNHIT6 (UniProt Q9NWK9),inactive: 0
17,WIPF1 (UniProt O43516),inactive: 0
18,YIPF6 (UniProt Q96EC8),inactive: 0

# Nothing new here: an excerpt of the list.
row,Target,dose-dependent thermal stabilisation call
3,YPEL5 (UniProt P62699),inactive: 0
4,ZNF598 (UniProt Q86UK7),inactive: 0

# Next part

row,Target,dose-dependent thermal stabilisation call
1,ZMYM2 (UniProt Q9UBW7),inactive: 0
2,XRCC4 (UniProt Q13426),inactive: 0
3,WIZ (UniProt O95785),inactive: 0
4,XRN1 (UniProt Q8IZH2),inactive: 0
5,ZNF24 (UniProt P17028),inactive: 0
6,ZNF800 (UniProt Q2TB10),inactive: 0
7,ZBTB9 (UniProt Q96C00),inactive: 0
8,YTHDF3 (UniProt Q7Z739),inactive: 0
9,ZCCHC11 (UniProt Q5TAX3),inactive: 0
10,WWP2 (UniProt O00308),inactive: 0
11,ZWILCH (UniProt Q9H900),inactive: 0
12,XRCC1 (UniProt P18887),inactive: 0
13,YIF1B (UniProt Q5BJH7),inactive: 0
14,ZNF579 (UniProt Q8NAF0),inactive: 0
15,ZNF192 (UniProt Q15776),inactive: 0
16,ZMIZ1 (UniProt Q9ULJ6),inactive: 0
17,XPR1 (UniProt Q9UBH6),inactive: 0
18,ZNF280C (UniProt Q8ND82),inactive: 0
